The other results are listed elsewhere or left out. Shown are side measurements of this screen, not its main read-out; they come without a call. Most of these compounds were active or inconclusive in the main read-out, so they are no random draw. Words in brackets tell the shape of the fitted curve; partial curves, single points and poor fits give uncertain potencies.
Assay: qHTS Assay to Find Inhibitors of Chronic Active B-Cell Receptor Signaling
Conditions: ABC-DLBCL IkBa-CBG/CBR reporter, luminescence ratio (green luciferase fused to IkBa over red control in TMD8 lymphoma cells), 4 h
In short: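 Doxycycline induced both beetle luciferases in TMD8 lymphoma cells; IKK-driven degradation limits the IkappaBalpha-fused green signal, while red luminescence normalises for cell number and nonspecific effects. Compounds tested up to 46 uM, 4 hrs.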

[1] = measured here: CBR red luminescence, cell number
[2] = measured here: IkBa-CBG green luminescence

In the case of O=C(Oc1ccc(Cl)cc1)c1ccc2nccnc2c1, the AC50 [1] is reported as 5.8 µM [falling, single point] and the AC50 [2] is reported as 6.51 µM [rising, partial curve, poor fit].
In the case of O=C(NCC#CCOCc1ccccc1)c1ccccc1, the AC50 [1] is reported as 0.411 µM [rising, full curve, poor fit].
With CCOC(=O)C1=C(C)NC(SCC(=O)Nc2nc(C)cs2)=C(C#N)C1c1cccs1 (centres undefined) the AC50 [1] was 20 µM [falling, partial curve, poor fit] and the AC50 [2] was 6.31 µM [rising, partial curve, poor fit].
For COc1ccc(N(CC(=O)O)S(=O)(=O)c2ccc(OC)c(OC)c2)cc1, the AC50 [1] was 25.9 µM [rising, single point].
For CCC[N+]1(CC#CC(O)(c2ccccc2)C2CCCCC2)CCCCC1 (centres undefined), the AC50 [1] was 35.5 µM [falling, single point].
For Cc1cccc(/C=N\NC(=O)c2csnn2)c1, the AC50 [1] was 35.5 µM [falling, partial curve, poor fit].
In the case of N#Cc1c(SCC(=O)Nc2ccccc2C(F)(F)F)sc2c(O)cc(=O)[nH]c12, the AC50 [1] is reported as 17.8 µM [falling, single point].
For CCOc1ccc(C(=O)NC(=S)Nc2ccc(NC(=O)C(C)C)cc2)cc1[N+](=O)[O-], the AC50 [1] was 2.59 µM [rising, full curve, poor fit].
For CCOC(=O)c1ccc(NC(=O)COC(=O)Cc2csc(-c3ccccc3)n2)cc1, the AC50 [1] was 7.31 µM [rising, partial curve, poor fit].
With CNC(=O)C(NC(=O)Nc1ccc(C)cc1)C(C)(C)C (centres undefined) the AC50 [1] was 10 µM [rising, partial curve].
For CCN1/C(=C2\C(=O)N(C)C(=S)N2C)C=Cc2cc(OC)ccc21, the AC50 [1] was 14.6 µM [rising, partial curve, poor fit].
With CCN1CCN(c2cc(C)c3cc(NC(=O)c4ccc(Br)o4)ccc3n2)CC1 the AC50 [1] was 0.631 µM [falling, full curve, poor fit].
For COc1cccc(NC(=O)CSc2nnc(Cc3cccs3)n2-c2ccc(C)cc2)c1, the AC50 [1] was 20.6 µM [falling, single point] and the AC50 [2] was 23.1 µM [rising, partial curve, poor fit].
For Clc1ccccc1OCc1nnc2n1CCCCC2, the AC50 [1] was 1 µM [rising, partial curve, poor fit].
With COCCN1CC(=O)N2C(c3cccc(OC)c3)c3[nH]c4ccccc4c3C[C@H]2C1=O (some centres undefined) the AC50 [1] was 1 µM [falling, full curve].
In the case of COc1ccccc1NC(=S)NC(=O)C1CC1, the AC50 [1] is reported as 2.59 µM [falling, full curve].
In the case of O=C(COc1ccccc1Cl)Nc1ccc(C(=O)O)cc1NC(=O)COc1ccccc1Cl, the AC50 [1] is reported as 10 µM [falling, partial curve].
With [O-][n+]1onc2c1CCC(=N/O)/C2=N\Nc1ccccc1 the AC50 [1] was 10 µM [falling, partial curve, poor fit].
In the case of COc1ccc(C(=O)N2CCc3cc(OC)c(OC)cc3C2COc2ccccc2OC)cc1 (centres undefined), the AC50 [1] is reported as 2.82 µM [rising, partial curve, poor fit].
For COc1ccc(-c2oc3cc(O)c(OC)c(O)c3c(=O)c2OC)cc1, the AC50 [1] was 35.5 µM [falling, single point].
For Clc1ncccc1-c1nnn(-c2ccccc2)n1, the AC50 [1] was 12.6 µM [falling, single point].
With O=C(c1ccc2c(c1)OCO2)C1CCCN(Cc2cn[nH]c2-c2ccccc2)C1 (centres undefined) the AC50 [1] was 35.5 µM [falling, single point].
With COC(=O)c1c(NC(=O)/C=C/C(=O)O)sc(C)c1-c1ccc(C)cc1 the AC50 [1] was 10 µM [falling, partial curve].
With CN(C)Cc1c(C(=O)N/N=C/c2ccncc2)nnn1-c1nonc1N the AC50 [1] was 11.2 µM [falling, partial curve, poor fit].
In the case of CCc1nc(SCc2ccc(F)cc2)[nH]c(=O)c1C#N, the AC50 [1] is reported as 25.9 µM [falling, partial curve, poor fit] and the AC50 [2] is reported as 29.1 µM [rising, partial curve, poor fit].
In the case of CCOCC(=O)Nc1cc(Cl)ccc1C, the AC50 [1] is reported as 0.891 µM [rising, partial curve, poor fit].
In the case of Cc1cc(C(=O)COC(=O)c2ccc(O)cc2O)c(C)n1-c1ccc(OC(F)F)cc1, the AC50 [1] is reported as 29.1 µM [falling, partial curve, poor fit].
In the case of CCOC(=O)c1sc(SCC(=O)Nc2ccc(N(C)C)cc2)nc1N, the AC50 [1] is reported as 14.1 µM [falling, partial curve, poor fit].
With CCN(c1ccc(OC)cc1)S(=O)(=O)c1nnc(NC(=O)CC(C)C)s1 the AC50 [1] was 0.562 µM [rising, full curve, poor fit].
In the case of N#Cc1ccccc1CSc1ccc(-c2nc3ccccc3[nH]2)cn1, the AC50 [1] is reported as 1.84 µM [falling, partial curve, poor fit] and the AC50 [2] is reported as 29.1 µM [falling, single point].
In the case of COc1ccc(C(=O)N2CCOC2CNC(=O)C(=O)NCCc2ccccc2OC)cc1 (centres undefined), the AC50 [1] is reported as 35.5 µM [rising, partial curve, poor fit].
For COCc1c(C(=O)NC2CCCCC2)sc2cccc(F)c12, the AC50 [1] was 1.64 µM [rising, full curve].
With Cc1ccc(N/C=C2/Sc3ccccc3NC2=O)cc1 the AC50 [1] was 1.26 µM [falling, full curve, poor fit].
In the case of C=C(C)c1cccc(C(C)(C)NC(=O)Nc2ccc(Cl)cn2)c1, the AC50 [1] is reported as 16.4 µM [falling, single point].
For CCOC(=O)Cc1c(C)nc2c(-c3ccc(Cl)cc3)cnn2c1C, the AC50 [1] was 35.5 µM [falling, single point].
With Cc1cc(NC(=O)CSc2nnc(COc3cccc(C)c3C)n2Cc2ccco2)no1 the AC50 [1] was 29.1 µM [falling, single point].
In the case of NNC(=O)c1ccc(COc2ccc3ccccc3c2)cc1, the AC50 [1] is reported as 20 µM [falling, partial curve, poor fit].
For Nc1nc(SCC(=O)Nc2ccc(OCc3ccccc3)cc2)n[nH]1, the AC50 [1] was 22.4 µM [rising, single point].
With CCCCC(=O)Nc1nnc(-c2ccco2)o1 the AC50 [1] was 35.5 µM [falling, single point] and the AC50 [2] was 35.5 µM [falling, single point].
In the case of O=C(N/N=C/c1cccc(Oc2ccccc2)c1)c1cccc(O)c1, the AC50 [1] is reported as 3.16 µM [falling, full curve].
For COc1ccc(/C=C2\SC(N3CCCCC3)=NC2=O)cc1OC, the AC50 [1] was 6.31 µM [rising, single point].
For COc1ccc(OC)c(NC(=O)c2cc3sccc3n2C)c1, the AC50 [1] was 5.01 µM [falling, partial curve, poor fit].
With N/C(Cc1ccc(Cl)cc1)=N\OC(=O)c1cccc2ccccc12 the AC50 [1] was 8.91 µM [rising, partial curve, poor fit].
In the case of CCOc1ccc(-c2ccc(SCC(=O)Nc3nnc(C)s3)nn2)cc1, the AC50 [1] is reported as 0.631 µM [falling, full curve, poor fit].
In the case of CCOc1ccc(C(=O)CC(Sc2ccc(C)cc2)C(=O)O)cc1 (centres undefined), the AC50 [1] is reported as 35.5 µM [falling, single point] and the AC50 [2] is reported as 14.1 µM [rising, partial curve, poor fit].
In the case of CC(=O)c1ccc(OC(C)c2nc3ccccc3s2)cc1 (centres undefined), the AC50 [1] is reported as 7.08 µM [rising, full curve].
In the case of COc1ccc(-n2c(C)cc(/C=C3/SC(=O)N(CC(=O)N4CCOCC4)C3=O)c2C)cc1, the AC50 [1] is reported as 29.1 µM [rising, single point].
In the case of COc1cc2c(cc1OC)C(c1ccc(Br)cc1)CC(=O)N2 (centres undefined), the AC50 [2] is reported as 11.2 µM [falling, partial curve, poor fit].
With COC(=O)c1sccc1NC(=O)Nc1ccc(OC)cc1OC the AC50 [1] was 5.01 µM [falling, partial curve, poor fit].
In the case of COc1cc(/C=C/C(=O)c2ccc3c(c2)OCCO3)cc(Br)c1OCC(=O)N(C)C, the AC50 [1] is reported as 15.8 µM [falling, partial curve, poor fit].
In the case of O=C(NCc1ccco1)c1ccc(S(=O)(=O)c2cccc(S(=O)(=O)N3CCOCC3)c2)cc1, the AC50 [1] is reported as 0.259 µM [rising, full curve, poor fit].
For Cc1ccc(C(=O)COc2ccccc2-c2ccccc2)cc1C, the AC50 [1] was 2.06 µM [rising, partial curve, poor fit].
With O=C1Cc2ccccc2C(=O)N1CCc1ccccc1 the AC50 [1] was 15.8 µM [falling, single point].
With O=C(O)c1cncc(C#Cc2ccccc2)c1 the AC50 [1] was 35.5 µM [rising, single point].
For Cn1cc(CN2CCc3ccccc3C2)c2ccccc21, the AC50 [1] was 1.46 µM [falling, full curve, poor fit].
With CCCN(CCC)CCCNS(=O)(=O)c1ccc2c(c1)oc(=O)n2C the AC50 [1] was 2.06 µM [falling, single point].
For Cc1cccc(/C=C2\Sc3ccc(C(=O)N4CCC(C)CC4)cc3N(C)C2=O)c1, the AC50 [1] was 20 µM [falling, partial curve, poor fit].
With O=C1N(Cc2ccc(F)cc2Cl)c2ccccc2C12OCCCO2 the AC50 [1] was 16.4 µM [rising, single point].
For O=C(CCC(=O)N1CCOc2ccc(Cl)cc21)NCCCN1CCC(Cc2ccccc2)CC1, the AC50 [1] was 0.251 µM [falling, full curve, poor fit].
For O=C(c1ccncc1)N1CCCC(N2CCN(c3ccc(F)cc3)CC2)C1 (centres undefined), the AC50 [1] was 35.5 µM [falling, single point].
In the case of CCC(=O)Nc1ccc(C(=O)N2CCN(C(=O)c3ccco3)CC2)cc1, the AC50 [1] is reported as 6.31 µM [falling, single point].
With CCc1nnc(NC(=O)CS(=O)(=O)c2ccccc2)s1 the AC50 [1] was 35.5 µM [falling, single point].

Reference: PubChem BioAssay AID493014 (National Center for Advancing Translational Sciences (NCATS), 2011)
